“Also recorded” adds a separate entry of the source. At least one compound was matched to its structure with a doubt left.
Columns and labels:
[1] = tested on: healthy subjects; test: Five Dimension Altered States of Consciousness questionnaire (5D-ASC); type: in vivo, human; settings: for 5D-ASC five primary dimensions compared to placebo: immediately post-treatment; for 5D-ASC Anxiety and Complex Imagery subscales, 25 mg vs 10 mg: p≤0.001
[2] = Hygroscopicity; type: physicochemical; settings: high humidity and when added to water; water of hydration lost rapidly on drying
[3] = tested on: healthy subjects; test: CANTAB Paired Associates Learning (PALTEA); type: in vivo, human; settings: 10 mg and 25 mg groups
[4] = tested on: healthy subjects; test: CANTAB global composite score; type: in vivo, human
Experimental: The following list of outcome measures are non-exhaustive. • a. The short-term change from Baseline (Day −1 [Visit 2]) to Day 7 (Visit 5) in cognitive measures of attention, spatial and working memory and executive function was measured by a composite score of the CANTAB Panel (Spatial Working Memory [SWM], Rapid Visual Information Processing [RVP], Paired Associates Learning [PAL]). • b. The short-term change from Baseline (Day −1 [Visit 2]) to Day 7 (Visit 5) in Social Cognition Panel scales (Pictorial Empathy Test [PET], Reading the Mind in the Eyes Test [RMET], Toronto Empathy Questionnaire [TEQ], Social Value Orientation [SVO], Scale of Social Responsibility [SSR]). • c. The change from Baseline (Day −1 [Visit 2]) to Day 28 (Visit 6) in cognitive measures of attention, spatial and working memory and executive function as measured by a composite score of the CANTAB Panel (SWM, RVP, PAL). • d. The long-term change from Baseline (Day −1 [Visit 2]) to Day 84 (Visit 7) in Social Cognition Panel scales (PET, RMET, TEQ, SVO, SSR). • e. Dose-related differences between cognitive effects of psilocybin at Baseline (Day −1 [Visit 2]), Day 7 (Visit 5) and Day 28 (Visit 6), as measured by a composite score of the CANTAB Panel (SWM, RVP, PAL). • f. Dose-related differences between psychological effects of psilocybin at Baseline (Day −1 [Visit 2]), Day 7 (Visit 5) and Day 84 (Visit 7), as measured by Social Cognition Panel scales (PET, RMET, TEQ, SVO, SSR). • g. Differences in cognitive effects of psilocybin between psilocybin-naïve and experienced subjects at Baseline (Day −1 [Visit 2]), Day 7 (Visit 5) and Day 28 (Visit 6), as measured by a composite score of the CANTAB Panel (SWM, RVP, PAL). • h. Differences in Positive and Negative Affect Schedule (PANAS) after study drug administration on Day 0 (Visit 3). • i. Differences between psilocybin and placebo in the Emotion Recognition Test (ERT), Intra-Extra Dimensional Set Shift (IED), One Touch Stockings (OTS), Verbal Fluency and Digit Span Forward at Day 7 (Visit 5). • j. A composite score of the CANTAB Panel, including the following tests: • i. Spatial Working Memory (SWM) (performed at Visit 2, Visit 5, and Visit 6). • ii. Rapid Visual Information Processing (RVP) (performed at Visit 2, Visit 5, and Visit 6). • iii. Paired Associates Learning (PAL) (performed at Visit 2, Visit 5, and Visit 6). • k. Cognitive Flexibility Panel • i. Emotion Recognition Task (ERT) (performed at Visit 5). • ii. Intra-Extra Dimensional Set Shift (IED) (performed at Visit 5). • iii. One Touch Stockings (OTS) (performed at Visit 5). • iv. Verbal Fluency (performed at Visit 5). • v. Digit Span Forward (performed at Visit 5). • l. Five Dimension Altered States of Consciousness questionnaire (5D-ASC) (performed at Visit 3). • m. PANAS (performed at Visit 2 and Visit 3). • n. NEO-Five Factor Inventory (NEO-FFI) (performed at Visit 2, Visit 5, and Visit 7). • o. Symptom Checklist-90 item (SCL-90) (performed at Visit 2, Visit 5, and Visit 7). • p. Life Changes Inventory (LCI): The LCI measures changes in attitudes and values after near-death experiences often used to evaluate personal transformation following spiritually oriented experiences and practices. (performed at Visit 5 and Visit 7). • q. Social Cognition Panel scales • i. Pictorial Empathy Test (PET) (performed at Visit 2, Visit 5, and Visit 7). • ii. Reading the Mind in the Eyes Test (RMET) (performed at Visit 2, Visit 5, and Visit 7). • iii. Social Value Orientation (SVO) (performed at Visit 2, Visit 5, and Visit 7). • iv. Toronto Empathy Questionnaire (TEQ) (performed at Visit 2, Visit 5, and Visit 7). • v. Scale of Social Responsibility (SSR) (performed at Visit 2, Visit 5, and Visit 7). • r. Sheehan Suicidality Tracking Scale (SSTS) • s. Mini International Neuropsychiatric Interview (MINI). • t. McLean Screening Instrument for Borderline Personality Disorder (MSIBPD) (performed at Visit 1). • u. Tellegen Absorption Scale (performed at Visit 2). • v. […]

[5] = tested on: healthy subjects; test: NEO-Five Factor Inventory (NEO-FFI); type: in vivo, human; settings: 10 mg and 25 mg, Day 7 or Day 84
Experimental: In some embodiments, the NEO-Five Factor Inventory (NEO-FFI) test is used to evaluate the safety and/or efficacy of psilocybin. The NEO-FFI evaluates 5 broad domains of personality—Neuroticism, Extroversion, Openness, Agreeableness and Conscientiousness.
The Neuroticism Extraversion Openness-Five Factor Inventory (NEO-FFI) and Symptom Checklist-90 Item (SCL-90) were administered. Details of the MMRM applied to the change from baseline scores for the NEO-FFI and SCL-90 are provided below in Table 28.

[6] = tested on: healthy subjects; test: CANTAB Spatial Working Memory strategy (SWMS); type: in vivo, human

## CN(C)CCc1c[nH]c2cccc(OP(=O)(O)O)c12 [psilocybin]
[1]; 10 mg and 25 mg, p≤0.0001
  5D-ASC five primary dimensions compared to placebo: Differences between the placebo and psilocybin groups
  5D-ASC 11 sub-scores compared to placebo: showed differences
[1]; 10 mg and 25 mg, p≤0.0001, listed as Psilocybin
  5D-ASC five primary dimensions compared to placebo: had an effect
[1]; in vivo
  5D-ASC, effect of prior exposure to psilocybin: no apparent effect
[1]
  5D-ASC Anxiety and Complex Imagery subscales, 25 mg vs 10 mg: higher mean value
[1]; listed as Psilocybin
  5D-ASC Anxiety and Complex Imagery subscales, 25 mg vs 10 mg: higher in the 25 mg dose group
[1]; p≤0.05
  5D-ASC Dread of Ego Dissolution and Auditory Alteration, 25 mg vs 10 mg: higher scores than the 10 mg psilocybin group
[2]
  Hygroscopicity: Psilocybin forms Hydrate A at
[3]
  PALTEA, change from Baseline to Day 28: numeric improvement in performance
[4]; 10 mg and 25 mg groups
  CANTAB global composite score, Baseline to Day 28: improvement in performance over time
[4]; 10 mg and 25 mg, 28-day study
  Performance on CANTAB tasks as a result of psilocybin exposure: no evidence of improvement or deterioration in performance; also recorded: no Visit-Dose effect
[4]; 10 mg, Day 28
  CANTAB global composite score, performance: performance increased again
[4]; 10 mg, subjects previously exposed to psilocybin only
  CANTAB composite, LS means Baseline to Day 28: improvement
[4]; 25 mg, irrespective of previous psilocybin exposure, higher relative to placebo
  CANTAB composite, change to Day 28: improvement
[4]; p-values>0.05
  CANTAB composite, effect of prior psilocybin status (ANCOVA): No main effect
[5]
  NEO-FFI scales, changes: no detectable effect
[6]; 10 mg and 25 mg groups
  SWMS, change from Baseline to Day 28: small numeric improvement in performance
[6]; 10 mg and 25 mg, Day 7
  SWMS, LS mean difference from placebo: performed similar to placebo
[6]; 10 mg, Day 28
  SWMS, LS mean difference from placebo: slightly worse than placebo
[6]; 25 mg, Day 28
  SWMS, LS mean difference from placebo: slightly better than the placebo

— patent publication US11865126B2, “Method for treating anxiety disorders, headache disorders, and eating disorders with psilocybin” (priority 2019, dated 2024)
